# Results from PubChem BioAssay AID2685 (National Center for Advancing Translational Sciences (NCATS), 2010).
# In all, about 320,000 compounds went through this assay and about 2,100 (0.66%) were called active. Inconclusive means that the source gave no clear call. Such entries were picked first, then a sample of the others. Calls follow the shape of the dose curve; as a rule, active = well fitted inhibition curve with a large enough effect in the signal ratio, with a control signal flat (not every such curve was filed as active); inconclusive = small, poorly fitted or top-dose-only effect, or effect the other way, or a change in a side signal; inactive = flat fitted curve, though single readings scatter; the % refers to the signal ratio. Potencies of inconclusive entries are doubtful fits and often do not repeat.
# Test: qHTS Assay for Lipid Storage Modulators in Drosophila S3 Cells
# Conditions: BODIPY lipid droplet fluorescence, 18-24 h, cells fed with added oleic acid; lipid storage change, negative = inhibition: at 46.1 µM (top of the series) unless noted
# Outline: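 Drosophila S3 cells got compounds at several concentrations plus oleic acid (400 uM solution). Laser-scanning cytometry with 488 nm excitation read lipid droplets at 500-530 nm and cells at 575-640 nm. Percent activity was relative to 20 uM Triacsin C.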
# % is scaled to controls: 0 for no effect and ±100 for the full control effect; potency is read from the fitted curve at half-maximal effect.
SMILES,Potency,"lipid storage change, negative = inhibition"
Oc1ccccc1/C=N/NC(=S)NC1CC2CC1C1C=CCC21 (configuration not stated),"inconclusive: 29.1 µM [cytotoxic, single point]",
O=C(COc1ccccc1[N+](=O)[O-])Nc1ccc2c(c1)CCC2,"inconclusive: 0.0058 µM [activator, full curve, poor fit]",
Cc1cccc(N2CCN(C(=O)CCc3nc4ccccc4[nH]3)CC2C)c1 (configuration not stated),"inconclusive: 6.51 µM [activator, single point]",
Cc1ccc(S(=O)(=O)Nc2ccc(-c3nnc(SCC#N)n3C)cc2)cc1,,inconclusive: 20.8%
CC(C)(C)C1(c2ccccc2)NC(=O)N(CC(=O)N2CCOCC2)C1=O (configuration not stated),,inconclusive: -127%
Cc1ccccc1SCC(=O)N/N=C/c1ccc(F)cc1,,inconclusive: -7.8%
O=C(c1cccc(S(=O)(=O)NCc2ccccc2)c1)N1CCN(c2ccc(F)cc2)CC1,"inconclusive: 0.164 µM [activator, full curve]",
CC(C)CCNC(=O)Cn1c(=O)oc2cc(S(=O)(=O)N3CC(C)CC(C)C3)ccc21 (configuration not stated),,inconclusive: -23.6%
CN(c1ccc(C(=O)N2CCN(Cc3ccc4c(c3)OCO4)CC2)cc1)S(C)(=O)=O,,inconclusive: -9.57%
N#Cc1ccccc1S(=O)(=O)N1CCN(C(=O)C2COc3ccccc3O2)CC1 (configuration not stated),,inconclusive: -34.6%
CN(C(=O)c1ccncc1)c1nnc(-c2ccncc2)s1,,inconclusive: 67.4%
CCOC(=O)c1c(N)n(-c2ccc(N)cc2)c2nc3ccccc3nc12,,inconclusive: -1.2%
COc1cc(/C=C2\SC(=S)N(Nc3ccccc3)C2=O)cc(OC)c1OC,"inconclusive: 25.9 µM [activator, single point]",
NC(=S)N/N=C\c1ccc(-c2cccc(Cl)c2Cl)o1,"inconclusive: 0.651 µM [rising, full curve]",
COc1ccc(-c2nnc(CSc3nc4ccccc4c(=O)n3C)o2)cc1OC,,inconclusive: 26.8%
O=C(/C=C/c1cccs1)Nc1nc(-c2ccccc2)cs1,,inactive: 24.3%
Cc1cc(C(=O)Nc2cccc3ccccc23)co1,,inconclusive: 487%
COc1cc(C(=O)N2CCC(C(=O)Nc3cccc(C(C)=O)c3)CC2)cc(OC)c1OC,,inconclusive: -8.13%
CCOC(=O)N1CCC(C(=O)NNC(=O)c2ccc(Cl)cc2Cl)CC1,,inconclusive: -10.9%
O=C(O)c1ccc(-n2nnnc2Oc2ccccc2C(=O)N2CCOCC2)cc1,,inconclusive: 14.5%
Cc1ccccc1-n1c(SCC(=O)Nc2cccc3ccccc23)nc(O)cc1=O,,inconclusive: -47.6%
CCCCCC(=O)N1CCN(CCN=CC2=C(O)CC(c3ccco3)CC2=O)CC1 (configuration not stated),,inconclusive: 18.1%
CCOC(=O)C1CCCN(Cc2nc(Cc3cccc(F)c3)no2)C1 (configuration not stated),,inconclusive: 14.7%
O=C(O)C(Cc1c[nH]c2ccccc12)NS(=O)(=O)c1cccc(Cl)c1Cl (configuration not stated),,inconclusive: 21.1%
CNC(=O)COC(=O)c1cc(-c2ccc(OC)cc2)nc2ccccc12,"inconclusive: 16.4 µM [activator, single point]",
CCc1cc(=O)oc2c(C)c(O)c(CN3CCCCC3)cc12,,inconclusive: 49.5%

# Individual results from the entries so far.
# lipid storage change, negative = inhibition, O=C(O)c1ccc(-n2nnnc2Oc2ccccc2C(=O)N2CCOCC2)cc1 reads inconclusive: 14.5%
# Potency, O=C(COc1ccccc1[N+](=O)[O-])Nc1ccc2c(c1)CCC2 reads inconclusive: 0.0058 µM [activator, full curve, poor fit]
# lipid storage change, negative = inhibition, CC(C)(C)C1(c2ccccc2)NC(=O)N(CC(=O)N2CCOCC2)C1=O (configuration not stated) reads inconclusive: -127%
# lipid storage change, negative = inhibition, Cc1ccccc1SCC(=O)N/N=C/c1ccc(F)cc1 reads inconclusive: -7.8%

# The listing continues:

SMILES,Potency,"lipid storage change, negative = inhibition"
Cc1ccc(C(=O)N[C@H](C(=O)Nc2cc(Cl)cc(Cl)c2)C(C)C)cc1,,inconclusive: 10.7%
Cc1ccc(S(=O)(=O)Nc2ccc(C(=O)N3CCCC3)cc2)c(C)c1NS(C)(=O)=O,"inconclusive: 0.259 µM [activator, full curve, poor fit]",
CN(C)N=Nc1nc2c(c(=O)n(C)c(=O)n2C)n1C,,inconclusive: 1.09%
COc1ccccc1/C=N/NC(=O)c1ccc(C)nc1,"inconclusive: 23.1 µM [activator, single point]",
CC1(C)CC(NC(=O)c2cc(S(=O)(=O)N3CCCCC3)ccc2Cl)CC(C)(C)N1,,inconclusive: 9.25%
COCc1cc(CN(C)C(=O)C2CCC(=O)N(Cc3cccc(OC)c3)C2)[nH]n1 (configuration not stated),,inconclusive: 33.8%
Clc1ccc(/C=N/Nc2nc(Cl)nc3ccccc23)cc1,,inconclusive: -25.8%
O=C(Cc1ccc(-n2c(=O)c3ccccc3n(Cc3ccccc3F)c2=O)cc1)NCC1CCCO1 (configuration not stated),,inconclusive: 20.8%
COc1ccc(NC(=O)C2CC(=O)N(c3cc(C)ccc3C)C2)cc1 (configuration not stated),,inconclusive: -13%
O=C(Nc1ccccc1C(=O)NCCCn1ccnc1)c1ccccc1,"inconclusive: 1.3 µM [activator, partial curve]",
CCOc1cc(NC(=O)C2CCCO2)c(OCC)cc1NC(C)=O (configuration not stated),,inconclusive: -53.3%
CNC[C@@H](C)NC[C@@H](Cc1ccccc1)NCCc1ccccc1,"inconclusive: 20.6 µM [falling, single point]",
CCOC(=O)c1ccc2nc(Nc3nc4ccc(F)cc4s3)sc2c1,,inconclusive: -55.3%
O=C(COc1ccc2c(-c3ccccc3)cc(=O)oc2c1)Nc1ccc(CCO)cc1,,inconclusive: 12.5%
COc1ccc(COC(=O)Nc2cc3c(C(F)(F)F)nn(C)c3s2)cc1,"inconclusive: 29.1 µM [falling, single point]",
COc1ccc(Nc2cc(C(=O)NCc3ccccn3)c3ccccc3n2)c(OC)c1,"inconclusive: 29.1 µM [cytotoxic, single point]",
Cn1c(=O)[nH]c(Nc2ccc(F)cc2)c([N+](=O)[O-])c1=O,,inconclusive: 2.48%
Cc1oc(-c2ccccc2Cl)cc1-c1nn2c(-c3ccco3)nnc2s1,"inconclusive: 0.82 µM [falling, full curve, poor fit]",
CC1CN(CC(=O)NCc2ccc(Cl)cc2)CC(C)O1 (configuration not stated),,inconclusive: 334%
O=S(=O)(c1ccc(Oc2ccc(F)c(Cl)c2)nc1)N1CCOCC1,,inconclusive: 26%
Cc1c(OCC(=O)N[C@@H](Cc2ccccc2)C(=O)O)ccc2c3c(c(=O)oc12)CCC3,"inconclusive: 29.1 µM [activator, single point]",
c1ccc(-c2nnc(CSc3nnc(-c4ccncc4)n3Cc3ccco3)o2)cc1,"inconclusive: 2.59 µM [activator, partial curve]",
C=CCn1c(SCCOc2ccc(OC)cc2)nnc1C(C)NC(=O)Cc1ccc(OC)cc1 (configuration not stated),,inconclusive: 76.8%
COc1cc(N=Nc2ccc3ccccc3c2)ccc1O,,inconclusive: -68.1%
COc1ccc(CNC(=O)Nc2ccc(C)c(C)c2)cc1,,inconclusive: 4.22%
CCOc1ccccc1NC(=O)c1cc(=O)c2ccccc2o1,"inconclusive: 7.31 µM [falling, partial curve, poor fit]",

SMILES,Potency,"lipid storage change, negative = inhibition"
O=C(c1ccccc1)N1CCC(O)(c2cccnc2)CC1,,inconclusive: 61.8%
CCN(CCO)Cc1cc(=O)oc2c(C)c(C)ccc12,,inconclusive: 16.7%
O=C(COC(=O)C1CCC1)NCCc1ccc(Cl)cc1Cl,"inconclusive: 29.1 µM [activator, single point]",
COc1ccc(NC2=CC(=O)CC(c3ccccc3)C2)cc1 (configuration not stated),,inconclusive: -4.8%
CC(C)N(Cc1cnn(C)c1)Cc1nc(-c2ccc(Cl)cc2)no1,,inconclusive: 18.6%
O=C(Nc1ccc(F)c(F)c1)C1CCCN1S(=O)(=O)c1ccc(F)cc1 (configuration not stated),,inconclusive: 26.4%
O=C(N/N=C/c1ccoc1)c1cc(O)cc(O)c1,,inconclusive: -13.7%
CCCc1nc2c(c(=O)c3ccccc3n2C)c(=O)n1C1CCCCCC1,,inconclusive: -17.4%
COc1cc(C)c(/C=C(\C#N)C(=O)Nc2cccc(C)c2)cc1C(C)C,,inconclusive: 22.5%
CN(Cc1cnccn1)C(=O)CC1C(=O)NCCN1Cc1cccc(F)c1 (configuration not stated),,inconclusive: 20.6%
CCOc1ccc(N(CC(=O)Nc2c(C)n(C)n(-c3ccccc3)c2=O)S(=O)(=O)c2ccccc2)cc1,,inconclusive: -14.5%
CC1CCCC(NC(=O)CCC(=O)NCc2ccccc2)C1C (configuration not stated),"inconclusive: 1.3 µM [activator, partial curve]",
CN1CCN(c2ccc(NC(=O)c3cc4ccccc4o3)cc2)CC1,,inconclusive: 81.9%
O=C(NCc1ccccc1)C(=O)NCC1OCCN1C(=O)c1ccc(Cl)cc1 (configuration not stated),,inconclusive: 11.5%
COc1ccc(C(=O)COC(=O)c2ccc([N+](=O)[O-])s2)cc1OC,,inconclusive: -39.9%
CC(CN1CCCC1)OC(=O)c1cccc(F)c1 (configuration not stated),"inconclusive: 5.17 µM [activator, full curve]",
CC(=O)c1cccc(NC(=O)NNC(=O)CCC(=O)Nc2ccc(C)c(C)c2)c1,,inconclusive: -1.54%
Cc1nc(N2CCCCC2)c2c(C)c(C(=O)Nc3ccc4c(c3)OCCO4)sc2n1,,inconclusive: -48.4%
N=C(N)SCc1ccc(Cl)cc1Cl,,inconclusive: 11%
O=C(Nc1cc(S(=O)(=O)Nc2ccc(Cl)cc2)ccc1N1CCCCC1)c1ccc(F)cc1,,inconclusive: -19.6%
COc1ccc(/C=C(\C#N)C(=O)NCc2ccccc2)cc1O,"inconclusive: 29.1 µM [activator, single point]",
O=C(COC(=O)c1cc(=O)[nH]c2ccccc12)NCc1ccc(F)cc1,,inconclusive: 25.6%
COc1ccc2nc(N(CCN(C)C)C(=O)c3ccc4ccccc4c3)sc2c1,"inconclusive: 6.51 µM [activator, single point]",
Cc1cc(NC(=O)CCc2ccc(S(=O)(=O)N3CCOCC3)cc2)n(-c2ccccc2)n1,,inconclusive: -19%
C=CCN(C(=O)CCC(=O)Nc1cc(C)on1)C(C(=O)NC1CCCC1)c1ccc(Cl)cc1 (configuration not stated),"inconclusive: 29.1 µM [activator, partial curve]",
